Test results as given in publication doi:10.1101/2023.07.27.550782.
No constants are given. Whether binding was seen depends on the method and setting. In cells and extracts the contact can be indirect. Some results given as binding are weak or reduced against the parent protein; the word gives no strength. For some assays here: Tags and fused reporters may be left off the sequences shown.

By UniProt entry, the sequences of proteins in these tests, tags left out. Where a name states a change or a piece, a line headed by the entry shows the natural chain unless it says otherwise.
UniProt P25021: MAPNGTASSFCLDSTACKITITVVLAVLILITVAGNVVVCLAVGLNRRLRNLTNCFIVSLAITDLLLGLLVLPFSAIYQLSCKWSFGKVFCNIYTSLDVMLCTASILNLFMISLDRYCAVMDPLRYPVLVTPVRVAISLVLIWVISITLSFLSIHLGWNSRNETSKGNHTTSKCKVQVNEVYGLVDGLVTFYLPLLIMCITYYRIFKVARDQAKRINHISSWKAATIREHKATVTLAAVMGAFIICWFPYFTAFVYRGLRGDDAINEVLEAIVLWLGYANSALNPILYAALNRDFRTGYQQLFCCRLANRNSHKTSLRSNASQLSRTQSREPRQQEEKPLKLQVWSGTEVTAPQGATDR
UniProt P35367: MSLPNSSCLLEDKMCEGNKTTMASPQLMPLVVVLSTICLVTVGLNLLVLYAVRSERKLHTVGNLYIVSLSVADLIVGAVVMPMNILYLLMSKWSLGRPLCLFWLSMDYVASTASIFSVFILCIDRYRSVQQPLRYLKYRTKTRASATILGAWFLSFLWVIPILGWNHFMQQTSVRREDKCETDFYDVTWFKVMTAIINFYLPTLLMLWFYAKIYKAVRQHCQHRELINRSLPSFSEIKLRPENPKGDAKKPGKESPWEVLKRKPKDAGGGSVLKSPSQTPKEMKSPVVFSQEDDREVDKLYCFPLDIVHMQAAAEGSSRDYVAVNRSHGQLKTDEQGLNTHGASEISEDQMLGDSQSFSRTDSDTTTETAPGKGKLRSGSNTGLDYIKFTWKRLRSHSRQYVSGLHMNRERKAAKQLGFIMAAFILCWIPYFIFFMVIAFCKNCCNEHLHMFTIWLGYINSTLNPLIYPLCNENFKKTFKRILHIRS

Experiments:
[1] = target: human histamine 2 receptor, cell-free synthesized, Strep-tagged (H2R-Strep), in nanodiscs (DOPG) (human) (UniProt P25021); experiment: pull-down
[2] = target: T1, free fatty acid 2 receptor, cell-free synthesized, Strep-tagged (FFAR2-Strep), in nanodiscs (DOPG) (UniProt O15552); experiment: pull-down
T1 sequence: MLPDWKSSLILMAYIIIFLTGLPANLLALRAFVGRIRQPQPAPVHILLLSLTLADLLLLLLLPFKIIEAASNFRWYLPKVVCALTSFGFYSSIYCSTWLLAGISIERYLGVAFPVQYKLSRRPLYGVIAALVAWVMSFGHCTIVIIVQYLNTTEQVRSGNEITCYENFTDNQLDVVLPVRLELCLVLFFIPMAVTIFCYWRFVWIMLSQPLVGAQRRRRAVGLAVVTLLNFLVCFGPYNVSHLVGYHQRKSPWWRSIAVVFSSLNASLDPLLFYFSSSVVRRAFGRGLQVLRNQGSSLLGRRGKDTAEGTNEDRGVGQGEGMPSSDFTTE

“Flag-tagged H1R expressed in HEK293T cells (Flag-H1R) (from UniProt P35367 1-487) (receptor)” was tested, and the binding [1] was “binds” and the binding [2] was “no binding”.
